Experimental data reported in patent publication US20130281361A1, “METHODS OF TREATING AND PREVENTING RHINOVIRUS INFECTION” (priority 2010, published 2013).
Some results were stated once for a whole list of compounds, not compound by compound.

Sequences of proteins named here, by UniProt entry; tags and fusion partners are left off. A change or cut given only in a name is not applied to a line headed by its entry.
UniProt P59665: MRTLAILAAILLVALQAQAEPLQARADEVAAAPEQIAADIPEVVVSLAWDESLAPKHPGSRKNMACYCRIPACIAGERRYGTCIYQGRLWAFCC

tested on: rhinovirus (Rv16); experiment: Rhinovirus (Rv16) infectivity: virus incubated with peptide, titer quantified by TCID50 assay using H1-HeLa cells; type: cell-based; conditions: Example 1, FIG. 1; Rv16, 1 hour at 37° C.
Protocol: To determine if β-defensins had antiviral activity against rhinovirus, recombinant human β-defensins (Peprotech, Rocky Hill, N.J.) were used in assays with rhinovirus (Rv16). Recombinant β-defensin proteins were diluted in PBS to the desired concentrations (0.25-1.25 μg/mL). Virus was added to each tube to a final volume of 40 μL and incubated for 1 hour at 37° C. plus 5% CO2. After incubation, 200 uL of cell culture media was added to each tube and viral titers were quantified in a 50% Tissue Culture Infectious Dose (TCID50) assay using H1-HeLa cells. The TCID50 assay is a standard endpoint dilution assay that is used to quantify how much of a given virus is present in a sample. The limit of detection for rhinovirus in the assay was 1.2 log10 TCID50.
Human α-defensins and LL-37, a broadly expressed antimicrobial peptide from the cathelicidin family, were also tested for antiviral activity against rhinovirus. Recombinant human α-defensins (HNP-1, HNP-3 and HNP-5) (Pepnet, Louisville, Ky.) and recombinant LL-37 (Pepnet, Louisville, Ky.) were used in assays with rhinovirus (Rv16) to determine their antiviral activity. Recombinant HBD-3 (Peprotech, Rocky Hill, N.J.) was used as a control. The recombinant proteins were diluted in PBS to the desired concentrations (see FIG. 2). Virus was added to each tube to a final volume of 40 μL and incubated for 1 hour at 37° C. plus 5% CO2. After incubation, 200 μL of cell culture media was added to each tube and the concentration of virus was quantified by TCID50 assay using H1-HeLa cells. The limit of detection for rhinovirus in the assay was 1.2 log10 TCID50/mL.

| Substance | concentrations at which viral infectivity was significantly reduced |
| --- | --- |
| human β-defensin 1 (DHYNCVSSGGQCLYSACPIFTKIQGTCYRGKAKCCK; Beta-defensin 1; UniProt P60022 33-68, looked up) [HBD-1, recombinant human β-defensin (Peprotech)] | greater than 0.3125 μg/mL |
| human β-defensin 2 [HBD-2] | greater than 0.3125 μg/mL |
| human β-defensin 3 (GIINTLQKYYCRVRGGRCAVLSCLPKEEQIGKCSTRGRKCCRRKK; Beta-defensin 103; UniProt P81534 23-67, looked up) [HBD-3, recombinant human β-defensin (Peprotech)] | greater than 0.3125 μg/mL |
| human β-defensin 4 (EFELDRICGYGTARCRKKCRSQEYRIGRCPNTYACCLRKWDESLLNRTKP; Beta-defensin 104; UniProt Q8WTQ1 23-72, looked up) [HBD-4, recombinant human β-defensin (Peprotech)] | greater than 0.3125 μg/mL |

tested on: herpes virus (HSV); experiment: not given; conditions: background literature; cited from earlier work

| Substance | antiviral activity against HSV |
| --- | --- |
| human defensin 5 (ATCYCRTGRCATRESLSGVCEISGRLYRLCCR; Defensin-5; UniProt Q01523 63-94, looked up, fragment) [HD5, human α-defensin] | exhibited antiviral activity |
| human defensin 6 [HD-6] | exhibited antiviral activity |
| human neutrophil peptide 2 (CYCRIPACIAGERRYGTCIYQGRLWAFCC; Neutrophil defensin 2; UniProt P59665 66-94, looked up) [HNP2, human α-defensin] | exhibited antiviral activity |
| human neutrophil peptide 3 [HNP-3] | exhibited antiviral activity |
| human neutrophil peptide 4 (VCSCRLVFCRRTELRVGNCLIGGVSFTYCCTRV; Neutrophil defensin 4; UniProt P12838 64-96, looked up) [HNP4, human α-defensin] | exhibited antiviral activity |
| human β-defensin 3 (GIINTLQKYYCRVRGGRCAVLSCLPKEEQIGKCSTRGRKCCRRKK; Beta-defensin 103; UniProt P81534 23-67, looked up) [HBD-3, recombinant human β-defensin (Peprotech)] | exhibited antiviral activity |
